US20150017171A1
No constants are given. Whether binding was seen depends on the method and setting. Some binding calls cover weakened binding; strength is not graded here. For some assays here: Where a sequence is shown, tags or fusion partners need not be part of it.

Protein sequences, listed by entry. Tags and fused reporters are not part of them. Lines headed by an entry give the natural chain unless they say otherwise; changes in a name come on top.
UniProt Q9BX97: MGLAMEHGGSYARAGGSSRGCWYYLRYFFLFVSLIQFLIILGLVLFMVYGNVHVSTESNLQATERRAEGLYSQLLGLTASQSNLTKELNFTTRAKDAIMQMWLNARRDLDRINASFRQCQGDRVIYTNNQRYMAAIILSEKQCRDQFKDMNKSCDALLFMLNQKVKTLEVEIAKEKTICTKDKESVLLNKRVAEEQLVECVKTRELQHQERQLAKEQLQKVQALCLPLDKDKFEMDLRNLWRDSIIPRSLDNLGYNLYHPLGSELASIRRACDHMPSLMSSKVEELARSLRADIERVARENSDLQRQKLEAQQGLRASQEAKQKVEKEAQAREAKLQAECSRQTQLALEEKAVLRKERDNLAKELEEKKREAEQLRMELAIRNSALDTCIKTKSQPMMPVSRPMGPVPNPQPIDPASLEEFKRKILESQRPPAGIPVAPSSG

What was measured:
[1] = molecular target: T1, His-tagged human PLVAP51-442 recombinant fusion protein (human) (UniProt Q9BX97); assay: immunoblot of E. coli total protein extract
T1 sequence: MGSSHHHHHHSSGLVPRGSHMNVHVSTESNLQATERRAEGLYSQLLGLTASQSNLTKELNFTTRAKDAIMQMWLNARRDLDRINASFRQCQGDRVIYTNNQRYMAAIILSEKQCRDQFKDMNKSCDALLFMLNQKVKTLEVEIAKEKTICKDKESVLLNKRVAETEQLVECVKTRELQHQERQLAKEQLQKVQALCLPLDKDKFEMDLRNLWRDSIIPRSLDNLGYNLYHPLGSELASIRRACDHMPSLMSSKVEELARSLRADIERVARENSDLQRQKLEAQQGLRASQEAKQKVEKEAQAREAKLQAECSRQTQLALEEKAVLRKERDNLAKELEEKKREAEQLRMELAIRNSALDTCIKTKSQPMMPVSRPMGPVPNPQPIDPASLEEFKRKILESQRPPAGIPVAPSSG

[2] = molecular target: T2, rhesus monkey PLVAP (rhesus monkey) (UniProt H9Z0S1); assay: immunohistochemistry, rhesus monkey kidney section (FIG. 27P)
T2 sequence: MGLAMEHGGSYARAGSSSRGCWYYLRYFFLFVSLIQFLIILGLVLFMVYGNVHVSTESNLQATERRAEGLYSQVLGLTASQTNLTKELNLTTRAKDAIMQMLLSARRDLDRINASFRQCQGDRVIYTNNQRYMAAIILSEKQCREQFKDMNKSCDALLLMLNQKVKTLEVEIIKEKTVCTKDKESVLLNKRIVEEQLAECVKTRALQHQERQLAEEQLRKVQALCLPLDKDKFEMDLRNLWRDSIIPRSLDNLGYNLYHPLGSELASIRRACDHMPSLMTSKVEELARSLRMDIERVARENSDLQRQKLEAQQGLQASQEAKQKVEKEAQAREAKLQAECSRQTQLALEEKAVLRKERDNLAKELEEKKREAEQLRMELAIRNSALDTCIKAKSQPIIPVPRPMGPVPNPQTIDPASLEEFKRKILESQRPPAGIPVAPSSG

[3] = molecular target: cynomolgus monkey PLVAP (cynomolgus monkey); assay: immunohistochemistry, cynomolgus monkey kidney section (FIG. 27O)
[4] = molecular target: cynomolgus monkey PLVAP (cynomolgus monkey); assay: immunohistochemistry on arrays of formalin-fixed normal tissues
[5] = molecular target: T2, rhesus monkey PLVAP (rhesus monkey); assay: as above
[6] = molecular target: T1, His-tagged human PLVAP51-442 recombinant fusion protein (human); assay: immunoblot of total protein extract of E. coli expressing the His-tagged protein
[7] = molecular target: T2, rhesus monkey PLVAP (rhesus monkey); assay: immunohistochemistry on formalin-fixed normal rhesus monkey tissue [D00034 FIG. 27P]
[8] = molecular target: cynomolgus monkey PLVAP (cynomolgus monkey); assay: immunohistochemistry on formalin-fixed normal cynomolgus monkey tissue [D00034 FIG. 27O]

Measured: binding

B1: KFCC-GY5 monoclonal antibody (murine, hybridoma ATCC PTA-9964) (antibody, mouse IgG1, V domains shown)
VH: QVQLQQPGAELVRPGASVKLSCKASGYTFTSNYINWVKQRPGQGLEWIGNIYPSDGFTNYNQKFKDRATLTVDKSSSTAYMQLSSPTSEDSAVYYCTRNFDVWGAGTTVTVSS
VL: DVVMTQTPLSLPVSLGDQASISCRSSQSLVHSNGNTYLQWYLQKPGQSPKLLIYTVSNRFSGVPDRFSGSGSGPDFTLKISRVEAEDLGVYFCSQSTHVPFTFGSGTKLEIK
binds: all assays above
